Experimental data published in patent publication US20130022605A1.
No constants are given. Whether binding was seen depends on the method and setting. Some entries that bind do so weakly or less than the wild type. One block for each binder: values may come before it.

Sequences of proteins named here, by UniProt entry; tags and fusion partners are left off. A change or cut given only in a name is not applied to a line headed by its entry.
UniProt P19438: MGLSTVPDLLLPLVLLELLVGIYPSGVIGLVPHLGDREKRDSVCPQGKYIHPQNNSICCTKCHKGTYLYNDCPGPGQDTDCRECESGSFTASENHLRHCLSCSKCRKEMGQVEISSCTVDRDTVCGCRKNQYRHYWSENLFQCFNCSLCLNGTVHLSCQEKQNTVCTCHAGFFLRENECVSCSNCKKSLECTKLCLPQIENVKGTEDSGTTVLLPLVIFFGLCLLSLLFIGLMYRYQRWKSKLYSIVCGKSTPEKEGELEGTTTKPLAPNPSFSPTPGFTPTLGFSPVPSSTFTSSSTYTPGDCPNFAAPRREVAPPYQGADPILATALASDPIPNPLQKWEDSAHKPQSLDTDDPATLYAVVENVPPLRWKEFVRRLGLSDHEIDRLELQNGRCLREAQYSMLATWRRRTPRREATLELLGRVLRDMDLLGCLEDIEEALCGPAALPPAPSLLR

Molecular target: human TNFR1 (human p55 TNF receptor) (human) (UniProt P19438)
Experiment: SPR on biotinylated TNFR1, competition with chimeric TNFR1

binding: binds
B1: TAR2h-154-10 (protein)
chain: EVQLLESGGGMVQPGGSLRLSCAASGFTFEHEGMVWVRQAPGKGLEWVSHIGEDGQSTYYADSVKGRFTISRDNSKNTLYLQMNSLRAEDTAVYYCANIPKAGPSFDYWGQGTLVTVSS

binding: binds
B2: TAR2h-185-25 (protein)
chain: EVQLLESGGGLVQPGGSLRLSCAASGFTFARYNMGWVRQAPGKGLEWVSLIDPSGGHTYYADSVKGRFTISRNNSKNTLYLQMNSLRAEDTAVYYCGKPVFSDWPAVEFDYWGQGTVVTVSS
